The values below come from the supplement of paper PMC11732987, “Enantioselective OTUD7B fragment discovery through chemoproteomics screening and high-throughput optimisation” (Communications Chemistry, 2025).

The list shows a part of the results. The data scatter; read single values as rough.

In one assay the target is T1, PER1 C590 (UniProt O15534).
T1 sequence (whole entry): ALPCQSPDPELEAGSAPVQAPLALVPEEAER
Put plainly: log2 mean competition ratio of IA-DTB cysteine labelling (DMSO/compound) (log2 ratio); higher = stronger cysteine engagement by compound. As to conditions: 50 µM; treatment time: 4 h; cell line lysate: HEK293T. How it is done: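 IA-DTB competitive cysteine chemoproteomics in HEK293T RIPA lysate. Lysates were treated with compound 29 or 30 at 50 or 200 µM for 4 h, then IA-DTB (500 µM, 1 h), trypsin-digested, NeutrAvidin-enriched and analysed by diaPASEF. Competition ratio = intensity DMSO / intensity compound (n=4 treated, n=64 DMSO); binding: mean log2 CR ≥ 1 and p ≤ 0.05 plus QC filters. Target is the cysteine site.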
`O=C(CCl)N[C@@H]1CCCc2ccccc21`: the “log2 mean competition ratio” value was -0.44.
Consider `O=C(CCl)N[C@H]1CCCc2ccccc21`, for which the “log2 mean competition ratio” value is 0.202.

Still in this assay, the particulars now being: 200 µM; treatment time: 4 h; cell line lysate: HEK293T.
For `O=C(CCl)N[C@@H]1CCCc2ccccc21`, the “log2 mean competition ratio” value is -0.425.
Consider `O=C(CCl)N[C@H]1CCCc2ccccc21`, for which the “log2 mean competition ratio” value was -0.497.
